Experiments:
SCN5A = molecular target: T1, SCN5A (Rattus norvegicus, UniProt P15389); experiment: Ex vivo F-18 autoradiography of rat myocardium; type: binding; details: competition ligands at the same concentration against the 18F tracer
T1 construct: Heart sections ([…] thickness) were prepared using a −20° C. cryostat and thaw-mounted onto gelatin-coated slides; from tissue; host or cells: rat heart (myocardium) cryosections
Procedure: Heart sections ([…] thickness) were prepared using a −20° C. cryostat and thaw-mounted onto gelatin-coated slides. The slides were stored at −20° C. until the day of the experiment. […] Individual images of sections were cropped using ImageJ with no additional adjustment to color levels/thresholds. The experimental setup was designed such that both baseline and competition experiments contained the same amount of radioactivity and were imaged on the same screen. […] For variation of washing times, the incubation was held constant at 15 min.

The chains behind the UniProt entries cited, without tags or fusion partners.
UniProt P15389, whole entry: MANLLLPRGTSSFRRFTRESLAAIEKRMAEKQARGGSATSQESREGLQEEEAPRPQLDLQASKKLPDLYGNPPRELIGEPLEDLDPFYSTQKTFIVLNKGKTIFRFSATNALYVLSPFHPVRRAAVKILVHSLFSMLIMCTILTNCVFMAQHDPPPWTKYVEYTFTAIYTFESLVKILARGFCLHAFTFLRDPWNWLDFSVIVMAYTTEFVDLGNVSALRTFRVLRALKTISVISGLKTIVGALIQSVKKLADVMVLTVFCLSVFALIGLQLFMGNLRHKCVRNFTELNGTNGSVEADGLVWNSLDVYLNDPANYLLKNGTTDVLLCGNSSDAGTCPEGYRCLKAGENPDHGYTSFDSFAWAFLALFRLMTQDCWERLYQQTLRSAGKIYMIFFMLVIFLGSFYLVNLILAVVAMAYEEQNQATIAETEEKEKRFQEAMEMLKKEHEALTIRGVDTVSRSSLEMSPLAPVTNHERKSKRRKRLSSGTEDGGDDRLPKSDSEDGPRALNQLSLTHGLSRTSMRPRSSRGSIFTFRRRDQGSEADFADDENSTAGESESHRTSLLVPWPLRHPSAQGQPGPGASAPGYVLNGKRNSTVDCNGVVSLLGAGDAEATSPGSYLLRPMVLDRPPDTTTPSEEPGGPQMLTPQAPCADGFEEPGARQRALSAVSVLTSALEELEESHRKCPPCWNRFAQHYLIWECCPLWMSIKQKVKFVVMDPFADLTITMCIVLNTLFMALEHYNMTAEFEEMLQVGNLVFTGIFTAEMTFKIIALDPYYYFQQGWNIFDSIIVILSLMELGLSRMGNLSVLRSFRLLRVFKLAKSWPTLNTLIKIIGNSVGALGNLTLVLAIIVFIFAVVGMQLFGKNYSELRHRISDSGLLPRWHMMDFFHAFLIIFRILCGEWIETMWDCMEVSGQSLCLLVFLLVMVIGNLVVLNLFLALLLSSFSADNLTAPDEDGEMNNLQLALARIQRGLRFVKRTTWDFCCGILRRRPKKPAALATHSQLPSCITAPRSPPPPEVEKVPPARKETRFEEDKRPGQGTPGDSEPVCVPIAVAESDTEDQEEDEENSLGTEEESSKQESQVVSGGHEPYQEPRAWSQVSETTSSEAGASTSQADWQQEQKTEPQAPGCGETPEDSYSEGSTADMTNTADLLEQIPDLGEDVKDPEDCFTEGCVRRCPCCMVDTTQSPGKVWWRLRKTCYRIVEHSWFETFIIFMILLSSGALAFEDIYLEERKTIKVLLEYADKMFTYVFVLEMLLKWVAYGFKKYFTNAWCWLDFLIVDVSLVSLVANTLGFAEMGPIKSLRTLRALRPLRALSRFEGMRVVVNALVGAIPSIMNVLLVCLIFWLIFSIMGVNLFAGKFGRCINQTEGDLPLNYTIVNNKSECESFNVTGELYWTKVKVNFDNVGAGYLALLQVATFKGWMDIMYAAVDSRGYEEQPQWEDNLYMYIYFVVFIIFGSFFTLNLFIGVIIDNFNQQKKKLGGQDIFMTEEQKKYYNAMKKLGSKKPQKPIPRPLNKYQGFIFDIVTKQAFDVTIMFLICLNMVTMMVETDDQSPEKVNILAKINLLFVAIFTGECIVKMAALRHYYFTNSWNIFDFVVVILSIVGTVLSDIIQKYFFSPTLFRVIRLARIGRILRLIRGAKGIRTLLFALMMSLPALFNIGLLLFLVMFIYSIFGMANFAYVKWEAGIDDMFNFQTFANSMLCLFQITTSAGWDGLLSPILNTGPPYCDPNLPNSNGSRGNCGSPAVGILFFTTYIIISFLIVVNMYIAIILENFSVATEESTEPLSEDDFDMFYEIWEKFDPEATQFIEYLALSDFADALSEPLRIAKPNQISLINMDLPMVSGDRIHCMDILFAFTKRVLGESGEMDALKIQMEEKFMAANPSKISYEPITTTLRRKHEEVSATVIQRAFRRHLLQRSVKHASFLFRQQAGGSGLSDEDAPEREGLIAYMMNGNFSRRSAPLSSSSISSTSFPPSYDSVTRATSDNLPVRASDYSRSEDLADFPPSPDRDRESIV

rat myocardium = experiment: Rodent PET-CT imaging of the myocardium, single bolus and bolus+infusion, with lidocaine block; type: in vivo
Procedure: Male Sprague-Dawley rats (400-500 g) were anesthetized with inhalational isoflurane (Forane) (3% in a carrier of 1.5-2 L/min medical oxygen for induction and 2% isoflurane for maintenance of anesthesia during the scan). Lateral tail vein catheters were placed for intravenous (i.v.) injection of the compounds. Two rats were arranged head-to-head in a Triumph Trimodality PET/CT/SPECT scanner (Gamma Medica, Northridge, Calif.) or a MicroPET P4 scanner. […] Dynamic PET acquisition was performed over 45 min and was followed by computed tomography (CT) for anatomic coregistration and attenuation correction. […] Reconstructed images were exported from the scanner in DICOM format along with an anatomic CT for rodent studies. These files were imported to AMIDE and Gaussian filtered (kernel size=15, fwhm=1.5 mm). Regions of interest (ROIs) were drawn manually at the lung and myocardium guided by high-resolution CT structural images and summed PET data. Time-activity-curves (TACs) were exported in terms of decay corrected activity per unit volume at specified time points with gradually increasing intervals.

`CCN(CC)CC(=O)Nc1c(C)cccc1C` [lidocaine] was tested. Which “level of non-specific / non-displaceable binding (BNS) as competition ligand” value (SCN5A) did it give?
Its value is “same level of non-displaceable binding”.

What about the “signal to background ratio (myocardium to lung)” value (rat myocardium; 5.0 mg/kg lidocaine i.v. 5 min before tracer, complete block) of the same compound?
Its value is 1.

And the IC50 (rat myocardium; Rattus norvegicus, assuming blood volume 30 mL, BV=0.06×BW+0.77, read-out: in vivo IC50 converted to concentration)?
The IC50 was 40 µM.
